Results as given in paper doi:10.1101/2025.04.16.649111.
These are yes or no findings as the source states them, for the method shown. Binding seen in cells or lysates may run through a third protein. Some binding calls cover weakened binding; strength is not graded here.

Sequences of proteins named here, by UniProt entry; tags and fusion partners are left off.
UniProt P21707, whole entry: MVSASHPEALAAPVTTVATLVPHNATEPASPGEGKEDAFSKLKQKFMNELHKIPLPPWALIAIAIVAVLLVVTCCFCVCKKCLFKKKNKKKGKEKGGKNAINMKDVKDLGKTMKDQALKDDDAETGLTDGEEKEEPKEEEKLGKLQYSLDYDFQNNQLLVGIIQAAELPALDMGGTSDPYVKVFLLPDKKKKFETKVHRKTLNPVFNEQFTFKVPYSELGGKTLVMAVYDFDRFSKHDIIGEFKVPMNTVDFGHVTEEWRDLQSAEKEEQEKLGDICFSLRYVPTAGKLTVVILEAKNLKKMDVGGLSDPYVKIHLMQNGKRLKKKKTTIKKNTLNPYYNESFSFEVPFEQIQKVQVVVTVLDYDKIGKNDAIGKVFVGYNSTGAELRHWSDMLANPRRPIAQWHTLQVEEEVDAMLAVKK

Target: endogenous Synaptotagmin 1 of primary hippocampal neurons (rat) (rat (endogenous in hippocampal neurons)) (UniProt P21707)
Assay: proximity ligation

B1: ciliary neurotrophic factor receptor (Cntfr) (receptor, UniProt Q08406 23-342)
chain: QKHSPQEAPHVQYERLGTDVTLPCGTASWDAAVTWRVNGTDLAPDLLNGSQLILRSLELGHSGLYACFHRDSWHLRHQVLLHVGLPPREPVLSCRSNTYPKGFYCSWHLSAPTYIPNTFNVTVLHGSKMMVCEKDPALKNRCHIRYMHLFSTIKYKVSISVSNALGHNTTAITFDEFTIVKPDPPENVVARPVPSNPRRLEVTWQTPSTWPDPESFPLKFFLRYRPLILDQWQHVELSNGTAHTITDAYAGKEYIIQVAAKDNEIGTWSDWSVAAHATPWTEEPRHLTTEAQAPETTTSTTSSLAPPPTTKICDPGELSS
- binding: binds
